Results are given in words; binding and its absence hold for the method and conditions named. In cells and extracts the contact can be indirect. Some binding calls cover weakened binding; strength is not graded here. Where a sequence is shown, tags or fusion partners need not be part of it. Values belong to the binder of their own block, whether it stands above or below them.
What was measured:
[1] = molecular target: Flag-IL-2Rα (human IL2RA in p3×Flag-CMV-7.1) (human) (UniProt P01589); assay: co-immunoprecipitation (anti-V5 or anti-Flag) and immunoblot, co-transfected 293T cells
[2] = molecular target: Flag-IL-2Rα (human IL2RA in p3×Flag-CMV-7.1) (human) (UniProt P01589); assay: figure legend heading for the co-immunoprecipitation experiments of FIGS. 4A-4K
[3] = molecular target: T1, mouse IL-2Rα (endogenous, OT-I CD8+ T cells) (mouse) (UniProt P01590); assay: anti-V5 co-immunoprecipitation and immunoblot, OT-I T cells
T1 sequence (looked up): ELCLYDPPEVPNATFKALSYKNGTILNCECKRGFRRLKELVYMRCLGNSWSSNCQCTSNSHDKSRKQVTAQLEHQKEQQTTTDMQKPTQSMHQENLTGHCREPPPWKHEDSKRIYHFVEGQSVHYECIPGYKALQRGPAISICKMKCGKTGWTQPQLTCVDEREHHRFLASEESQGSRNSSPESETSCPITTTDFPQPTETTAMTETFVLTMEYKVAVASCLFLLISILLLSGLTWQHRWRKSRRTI

By UniProt entry, the sequences of proteins in these tests, tags left out. Residues count along the entry.
UniProt P01589, residues 22-272: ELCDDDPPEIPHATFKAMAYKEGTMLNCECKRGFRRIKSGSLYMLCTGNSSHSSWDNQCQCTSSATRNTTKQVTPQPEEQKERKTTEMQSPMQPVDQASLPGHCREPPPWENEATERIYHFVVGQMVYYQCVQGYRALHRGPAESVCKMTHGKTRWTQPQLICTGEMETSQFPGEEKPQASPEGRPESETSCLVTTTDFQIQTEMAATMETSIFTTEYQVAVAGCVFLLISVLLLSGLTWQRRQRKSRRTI

[4] = molecular target: T1, mouse IL-2Rα (endogenous, OT-I CD8+ T cells) (mouse); assay: anti-V5 immunoprecipitation and LC-MS/MS (peptides and PSMs), OT-I T cells

binding [1]: binds
binding [2]: binds
B1: V5-SUSD2 (human SUSD2, V5-tagged) (receptor, not shown: small tags and cut ends)
chain: QESCSMRCGALDGPCSCHPTCSGLGTCCLDFRDFCLEILPYSGSMMGGKDFVVRHFKMSSPTDASVICRFKDSIQTLGHVDSSGQVHCVSPLLYESGRIPFTVSLDNGHSFPRAGTWLAVHPNKVSMMEKSELVNETRWQYYGTANTSGNLSLTWHVKSLPTQTITIELWGYEETGMPYSQEWTAKWSYLYPLATHIPNSGSFTFTPKPAPPSYQRWRVGALRIIDSKNYAGQKDVQALWTNDHALAWHLSDDFREDPVAWARTQCQAWEELEDQLPNFLEELPDCPCTLTQARADSGRFFTDYGCDMEQGSVCTYHPGAVHCVRSVQASLRYGSGQQCCYTADGTQLLTADSSGGSTPDRGHDWGAPPFRTPPRVPSMSHWLYDVLSFYYCCLWAPDCPRYMQRRPSNDCRNYRPPRLASAFGDPHFVTFDGTNFTFNGRGEYVLLEAALTDLRVQARAQPGTMSNGTETRGTGLTAVAVQEGNSDVVEVRLANRTGGLEVLLNQEVLSFTEQSWMDLKGMFLSVAAGDRVSIMLASGAGLEVSVQGPFLSVSVLLPEKFLTHTHGLLGTLNNDPTDDFTLHSGRVLPPGTSPQELFLFGANWTVHNASSLLTYDSWFLVHNFLYQPKHDPTFEPLFPSETTLNPSLAQEAAKLCGDDHFCNFDVAATGSLSTGTATRVAHQLHQRRMQSLQPVVSCGWLAPPPNGQKEGNRYLAGSTIYFHCDNGYSLAGAETSTCQADGTWSSPTPKCQPGRSYAVLLGIIFGGLAVVAAVALVYVLLRRRKGNTHVWGAQP

binding [3]: binds
binding [4]: binds
B2: V5-tagged mouse Susd2 (receptor, not shown: small tags and cut ends)
chain: AGAQGSCSLRCGAQDGLCSCHPTCSGLGTCCEDFLDYCLEILPSSGSMMGGKDFVVQHLKWTDPTDGVICRFKESIQTLGYVDDFYQVHCISPLLYESGYIPFTISMDNGRSFPHAGTWLAAHPYKVSESEKSQLVNETHWQYYGTSDTRGNLNLTWDTSALPTPAVTIELWGYEETGKPYSGNWTSKWSYLYPLATNIPNTGFFTFTPKPASPQYQRWKVGALRISSSRNYPGEKDVRALWTNDHALAWHLGDDFRADSVAWARAQCLAWEALEDQLPNFLTELPDCPCTLAQARADSGRFFTDYGCDIEHGSVCTYHPGAVHCVRSVQASPRYGSGQQCCYTAAGTQLLTSDSTSGSTPDRGHDWGAPPYRTPPRVPGMSHWLYDVISFYYCCLWAPECPRYMKRRPSSDCRNYRPPRLASAFGDPHFVTFDGTSFSFSGNGEYVLLETTLSDLRVQGRAQPGRMPNGTQARGTGLTAVAVQEDNSDVIEVRLAGGSRVLEVLLNQKVLSFTEQNWMDLKGMFLSVAAQDKVSIMLSSGAGLEVGVQGPFLSVSILLPEKFLTHTRGLLGTLNNNPRDDFTLRNGQVLPLNASAQQVFQFGADWAVSNTSSLFTYDSWLLVYQFVYGPKHNPNFKPLFPDETTLSPSQTEDVARLCEGDRFCILDVMSTGSSSVGNATRIAHQLHQHRLKSLQPVVSCGWLPPPANGHKEGLRYLEGSVVRFSCNNGYSLVGPESSTCQADGKWSMPTPECQPGRSYTVLLSIIFGGLAIVALISIIYMMLHRRRKSNMTMWSSQP
